No constants are given. Whether binding was seen depends on the method and setting. Some results given as binding are weak or reduced against the parent protein; the word gives no strength.
Biological target: Recombinant human uPAR (R&D Systems), immobilized on a CM5 sensor chip (human) (UniProt Q03405)
Experiment: SPR on immobilized uPAR

Amino acid sequences for entries named in this document (tags omitted). Residues count along the entry.
UniProt Q03405, residues 23-303: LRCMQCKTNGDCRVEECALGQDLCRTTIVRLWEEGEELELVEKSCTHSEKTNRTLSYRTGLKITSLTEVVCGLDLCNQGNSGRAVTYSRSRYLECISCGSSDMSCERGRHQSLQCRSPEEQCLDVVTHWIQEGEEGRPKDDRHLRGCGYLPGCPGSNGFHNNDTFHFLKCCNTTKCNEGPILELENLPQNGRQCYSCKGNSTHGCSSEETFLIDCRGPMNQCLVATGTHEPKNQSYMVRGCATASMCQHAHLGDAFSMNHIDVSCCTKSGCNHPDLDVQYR

Binder | binding
CYTL1 expressed in mammalian cells (ligand) TPPTCYSRMRALSQEITRDFNLLQVSEPSEPCVRYLPRLYLDIHNYCVLDKLRDFVASPPCWKVAQVDSLKDKARKLYTIMNSFCRRDLVFLLDDCNALEYPIPVTTVLPDRQR | binds
CYTL1 expressed in bacteria (ligand) TPPTCYSRMRALSQEITRDFNLLQVSEPSEPCVRYLPRLYLDIHNYCVLDKLRDFVASPPCWKVAQVDSLKDKARKLYTIMNSFCRRDLVFLLDDCNALEYPIPVTTVLPDRQR | binds

From patent publication US20090274695A1
